This passage reports half-maximal binding results from article PMC4175270.

Construct, isoform or probe ends are uncertain for at least one entry.

The target of the data set is MobC (UniProt Q209N7). Description: EMSA. The following applies: 10 mM Mg2+; EMSA: 25 mM Tris-HCl pH 8.0, 10 mM MgCl2, 50 mM NaCl, 0.1 mg/ml BSA, 37 C, 15 min, 20 ul; 2 pmol DNA, 0-20 pmol protein; 1-1.2% agarose in 1xTBE, ethidium bromide; recombinant protein; residues 1-176; protein details: N-terminal His6 (pET28a); probe letters rebuilt from the primers and the genome. (In general: A gel shift assay detects complexes by their altered migration in electrophoresis.)

As to “GCGCATGCTTTTCTCGTTGGAGGGTGATCAGGCAATCGGGCAGGACACCATCAAACAGCTCGTTGTTAAAGTGATCATATGCCCGCTGTAGTTCGTCGTAAGCCTGCAATGTTGGTTTCATCTAGTGCCCTGCTCCGTGTATTGGATTGCACAATCTATAACCATTATGCGGCAGCCTTTTGGATTGCACAATCCAAAGTTAGGGGAAGCCGACGAGCCAGGGAGCCCCGCGACCTGGTGAGCCTGGCCGAAGGCCAAAAGCCACTGCAAAACCGAAAAATTTCGTACGTACGAAAAAACATGGGGGGGTTAGAACTAGGGCAGGATTCTAGAATTGCTAGCGTCTGCCGCCGCTTGTGCTAAAATTGCACCTGTCCCCCCCTGCCCCCCCATGTTTAAAGAGGTCGTTAATGGCAAAGAGCTATCGGATCCGC (double strand) [mobCp mutIX 417 bp]”, the half-maximal binding worked out at 40 nM.
